Like-named read-outs stand apart in the source and are kept apart here.
Experiments:
[1] = for Assay (On dried Basis) (% w/w): specification: Not less than 98.0 and not more than 102.0; for Loss on drying (% w/w): specification: Not more than 0.5; for Description: specification: White to creamy white colour powder; for Identification by HPLC: specification: retention time of principal peak corresponds to standard solution
[2] = at room temperature
[3] = 3 months, storage 30° C.±2° C. at 65%±5% RH and 40° C.±2° C. at 75%±5% RH
[4] = 6 months, storage 30° C.±2° C. at 65%±5% RH and 40° C.±2° C. at 75%±5% RH

Structure (SMILES): CC(=O)[C@H]1CC[C@H]2[C@@H]3CC[C@H]4C[C@H](O)CC[C@]4(C)[C@H]3C(=O)C[C@]12C [Alfaxalone, 3-α-hydroxy-5-α-pregnane-11, 20-dione]
- Assay (On dried Basis) (% w/w) [1, 3]: Complies
- Loss on drying (% w/w) [1, 3]: Complies
- Description [1, 3]: white colour
- Identification by HPLC [1, 3]: Complies
- Assay (On dried Basis) (% w/w) [1, 4]: Complies
- Loss on drying (% w/w) [1, 4]: Complies
- Description [1, 4]: white colour
- Identification by HPLC [1, 4]: Complies
- Assay (On dried Basis) (% w/w) ([1]; Initial): Complies
- Loss on drying (% w/w) ([1]; Initial): Complies
- Description ([1]; Initial): white colour
- Identification by HPLC ([1]; Initial): Complies
- stable for (duration of stability) [2]: at least 6 months

Source: patent US20240182514A1, “Process for the Preparation of Alfaxalone” (Respect Labs LLP, priority 2021, published 2024)
